Some of the results follow. Cut-off read from the data, not from the text of the source: active = 2 or more and inactive = the rest. Most values lie within the scatter of the assay; repeated measurements hardly agree.

Results on 69 compounds are retold here after the supplement of paper PMC4683952.

This assay deals with Lgr5 (MarsCy1-Lgr5-EGFP, U2OS). The assay is described as follows: cell-surface Lgr5 expression (SCi1 fluorescence, background-subtracted) relative to WT DMSO (fold of DMSO control); higher = more Lgr5 at the plasma membrane. As to conditions: U2OS MarsCy1-Lgr5-EGFP stable; treatment time: overnight; library: ActiProbe-5K (TimTec); 25 µM.
`COC(=O)CCNc1n[nH]c(=O)[nH]c1=O`: the “cell-surface Lgr5 expression” value is inactive: 0.948. Regarding `CN(C)Cc1cc(/C=N\C2CCCCC2)c(S)s1`, the “cell-surface Lgr5 expression” value is inactive: 1.03.

Regarding `C#CC(C)(C)NS(=O)(=O)c1cccc2nsnc12`, the “cell-surface Lgr5 expression” value was inactive: 0.996. For `O=c1nc[nH]c2c1nc(Br)n2C1OC(CO)C(O)C1O` (centres undefined), the “cell-surface Lgr5 expression” value is inactive: 1.05.

On to `CC(=O)N1CCCC1C(=O)O` (centres undefined), for which the “cell-surface Lgr5 expression” value was inactive: 1.27. In the case of `O=c1[nH]c2ccc(F)cc2c(=O)c2ccccc12`, the “cell-surface Lgr5 expression” value was inactive: 0.908. For the compound `CN1CCC2(CC1)Oc1ccc(Cl)cc1C1CC(c3ccc(Cl)cc3)=NN12` (centres undefined), the “cell-surface Lgr5 expression” value was inactive: 0.516. In the case of `COc1cc(-c2nc(S)nc(N)c2C#N)cc(OC)c1OC`, the “cell-surface Lgr5 expression” value was inactive: 1.13.

Take `CCC(CC)NC1=NS(=O)(=O)c2ccccc21`: the “cell-surface Lgr5 expression” value is inactive: 1.14. `O=c1[nH]cccc1-c1noc(-c2cnccn2)n1`: the “cell-surface Lgr5 expression” value is inactive: 1.33. For `CC(C)(O)c1cc(C(N)=O)no1`, the “cell-surface Lgr5 expression” value is inactive: 1.2. As to `CCCCN(C)Cn1nc(O)ccc1=O`, the “cell-surface Lgr5 expression” value was inactive: 1.38. `Cc1nc2[nH]nc(Cl)c2c(C)c1Cl`: the “cell-surface Lgr5 expression” value is inactive: 1.66. Consider `CCOC(=O)c1sc(N2N=C(C)/C(=C/c3ccc(CC)s3)C2=O)nc1C`, for which the “cell-surface Lgr5 expression” value was inactive: 1.32. Turning to `Cc1cc(Cc2cc(C(C)(C)C)c(O)c(C(C)(C)C)c2)cc(C(C)(C)C)c1`, the “cell-surface Lgr5 expression” value is inactive: 0.806. For `O=C(O)Cn1nc(C(F)(F)F)c(Cl)c1C1CC1`, the “cell-surface Lgr5 expression” value is inactive: 1.18.

As for `Nc1ccc2c(c1)OC1(CCCC1)O2`, the “cell-surface Lgr5 expression” value is inactive: 1.02. Regarding `c1ccc(-c2cnc3ccccc3n2)cc1`, the “cell-surface Lgr5 expression” value was inactive: 1.28. `CSc1nc2n(n1)C(c1ccccc1)/C(=N/O)C(C)=N2` (centres undefined): the “cell-surface Lgr5 expression” value is inactive: 0.947. The same measure for `C=CCSc1nc(-c2cccnc2)ccc1C#N`: inactive: 0.948; for `Cc1ccc(C2Nc3ccccc3C(C)(C)O2)o1` (centres undefined): inactive: 1.18.

Take `c1ccc(-n2nnnc2SCc2ccccn2)cc1`: the “cell-surface Lgr5 expression” value was inactive: 1.16.

As for `Fc1ccc(-c2nc3sc(-c4ccc(F)cc4)nc3s2)cc1`, the “cell-surface Lgr5 expression” value is inactive: 0.872.

In the case of `Nc1ncnc2[nH]c(SCCO)nc12`, the “cell-surface Lgr5 expression” value was inactive: 1.32. For `CC(C)(C)c1cc(CSCCSCc2cc(C(C)(C)C)c(O)c(C(C)(C)C)c2)cc(C(C)(C)C)c1O`, the “cell-surface Lgr5 expression” value is inactive: 0.975.

Turning to `CC(=O)OCC1OC(n2cnc3c(O)ncnc32)C(OC(C)=O)C1OC(C)=O` (centres undefined), the “cell-surface Lgr5 expression” value is inactive: 1.12. `CCS(=O)(=O)c1ccsc1S(=O)(=O)CC`: the “cell-surface Lgr5 expression” value is inactive: 1.15. The figure for `C=C1Oc2ccccc2C(O)=C1[N+](=O)[O-]` is inactive: 1.3.

On to `COC(=O)CSc1n[nH]c(=O)[nH]c1=O`, for which the “cell-surface Lgr5 expression” value is inactive: 1.07. As for `O=[N+]([O-])c1ccc2nc(SSc3nc4ccc([N+](=O)[O-])cc4s3)sc2c1`, the “cell-surface Lgr5 expression” value is inactive: 1.58.

Consider `CN1C(=O)N(C)C2NC(=O)NC21` (centres undefined), for which the “cell-surface Lgr5 expression” value is inactive: 1.28. As to `C=CC[C@H]1CC(Cc2ccccc2)=C[C@H](CC=C)N1.Cl`, the “cell-surface Lgr5 expression” value was inactive: 1.03. Regarding `C#CCCOc1nc(N(C)C)nc(N(C)C)n1`, the “cell-surface Lgr5 expression” value is inactive: 0.95.

Consider `O=S(=O)(NCCSc1ccc(Cl)cc1)c1ccc2c(c1)OCCO2`, for which the “cell-surface Lgr5 expression” value is inactive: 1.1.

Turning to `O=C([O-])c1nc(O)nc(O)n1.[K+]`, the “cell-surface Lgr5 expression” value was inactive: 1.02.

For `CCn1cc(-c2n[nH]cc2Br)cn1`, the “cell-surface Lgr5 expression” value was inactive: 1.03. For `C#CCSc1nnc2c(n1)[nH]c1ccccc12`, the “cell-surface Lgr5 expression” value was inactive: 0.861. For `C=CCN(CC=C)S(=O)(=O)c1ccc(Cl)cc1`, the “cell-surface Lgr5 expression” value was inactive: 1.22.

With `Clc1ccccc1C1=Nn2c(nnc2-c2ccccn2)SC1`, the “cell-surface Lgr5 expression” value was inactive: 1.2.

With `O=C(Nc1nccs1)c1cccs1`, the “cell-surface Lgr5 expression” value is inactive: 0.889. Regarding `C(=N/N1CCN(c2ccccn2)CC1)/c1ccncc1`, the “cell-surface Lgr5 expression” value is inactive: 1. The same measure for `OCc1cc2c(cc1Cl)OCO2`: inactive: 0.94; for `COc1ccc(Oc2coc3cc(O)ccc3c2=O)cc1`: inactive: 1.26. The same measure for `N#CC1(C#N)C(C(=O)C23CC4CC(CC(C4)C2)C3)C12CCCCC2` (centres undefined): inactive: 1.13.

In the case of `N#Cc1c(C#N)c(N)n(N)c1N`, the “cell-surface Lgr5 expression” value is inactive: 1.05. For `Cc1sc2nc3c(O)cc(=S)[nH]c3c(Br)c2c1C`, the “cell-surface Lgr5 expression” value is inactive: 1.15. For `O/N=C/Cc1[nH]c2ccccc2c1-c1ccccc1`, the “cell-surface Lgr5 expression” value is inactive: 1.05.

With `Cc1cc(C)c(S(=O)(=O)NC(C)C)c(C)c1-n1cnnn1`, the “cell-surface Lgr5 expression” value is inactive: 1.32. The same measure for `O=C1C2C3c4ccccc4C(c4ccccc43)C2C(=O)N1c1ccccn1` (centres undefined): inactive: 1.35; for `CCSCCOC(=O)C1=C(C)NC2=C(C(=O)CCC2)C1c1ccc(C)o1` (centres undefined): inactive: 0.949; for `O=C(/N=c1/nc2ccc(Br)cn2s1)c1ccco1`: active: 2.03. As for `O=C(O)c1nsnc1NCCO`, the “cell-surface Lgr5 expression” value was inactive: 1.44. As to `Cc1[nH]c(=O)c(C(=O)O)c(C)c1[N+](=O)[O-]`, the “cell-surface Lgr5 expression” value was inactive: 0.956.

Turning to `COc1ccc(OC)c(S(=O)(=O)c2cc(OC)ccc2OC)c1`, the “cell-surface Lgr5 expression” value was inactive: 1.33. The figure for `CC1(C)C2CCC1(CS(=O)(=O)N1CCN(C(=O)c3ccco3)CC1)C(=O)C2` (centres undefined) is inactive: 0.985; for `Cc1cc(C)n2nc(N)nc2n1` it is inactive: 1.44.

Consider `CC(C)(C)C(=O)Nc1c[nH]c(=O)[nH]c1=O`, for which the “cell-surface Lgr5 expression” value is inactive: 0.898. Consider `O=[N+]([O-])c1cc2c(cc1/C=N\c1ccc(O)cc1)OCO2`, for which the “cell-surface Lgr5 expression” value is inactive: 1.15.

Turning to `C(=N/c1nccs1)/c1cccc2c1OCOC2`, the “cell-surface Lgr5 expression” value was inactive: 1.14.

Regarding `O=[N+]([O-])c1ccc(NNc2ccccc2)c([N+](=O)[O-])c1`, the “cell-surface Lgr5 expression” value is inactive: 0.457. Regarding `CCCCN(CCCC)S(=O)(=O)c1nc(C)c(Cl)c(C)c1C#N`, the “cell-surface Lgr5 expression” value was inactive: 0.889.

Turning to `N#Cc1c(-c2ccco2)cc(C2CC2)nc1N`, the “cell-surface Lgr5 expression” value was inactive: 0.98. The same measure for `Cc1cc(C)nc(SCc2nc3ccccc3nc2C)n1`: inactive: 1.06. For the compound `Fc1ccc(C2Nc3ccc(OC(F)(F)F)cc3C3C=CCC32)cc1` (centres undefined), the “cell-surface Lgr5 expression” value is inactive: 0.815. Take `Nc1cc(S(=O)(=O)c2ccc(O)c(N)c2)ccc1O`: the “cell-surface Lgr5 expression” value is inactive: 1.18.

Regarding `CN1C(=O)C2(SCC(=O)N2c2ccccc2)c2ccccc21` (centres undefined), the “cell-surface Lgr5 expression” value was inactive: 1.29. As to `CC(=O)Nc1nonc1-n1cccc1`, the “cell-surface Lgr5 expression” value is inactive: 0.916. `CC1(C)CC(=O)C/C(=N\NC(N)=S)C1`: the “cell-surface Lgr5 expression” value was inactive: 1.3. On to `Oc1cc2c(cc1C(c1ccc3c(c1)OCO3)N1CCOCC1)OCO2` (centres undefined), for which the “cell-surface Lgr5 expression” value was inactive: 1.23.
